From US20250179195A1
Results are given in words; binding and its absence hold for the method and conditions named. Some binding calls cover weakened binding; strength is not graded here.

Target: cynomolgus FLT3 expressed on CHO-S cells (cynomolgus)
Test: flow cytometry (iQue Screener PLUS) on CHO-S cells transiently expressing cynomolgus FLT3; AF647 anti-human IgG (H+L) secondary; GeoMean RL1-H; 12-point titration

binding | Binder
binds | anti-FLT3 antibody 17566 (antibody, human IgG1, kappa, L234A L235A, V domains shown) VH: QVTLKESGPVLVKPTETLTLTCTVSGFSFNNARMGVNWIRQPPGKALEWLAHIFSNDEKSYSTSLKSRLTISKDISKSQVVLTMTNMDPVDTATYYCARIVGYGSGWRLLGDYWGQGTLVTVSS VL: AIQMTQSPSSLSASVGDRVTITCRASQGITNDLGWYQQKPGKAPKLLIYAASSLQSGVPSRFSGSGSGTDFTLTISSLQPEDFATYYCLQDYNYPWTFGQGTKVEIKR
binds | anti-FLT3 antibody 17543 (antibody, human IgG1, kappa, L234A L235A, V domains shown) VH: QVTLKESGPVLVKPTETLTLTCTVSGFSLINARMGVTWIRQPPGKALEWLAHIFSNDEKSYSTSLKSRLTISKDTSKSQVVLTMTNMDPVDTATYYCARIPGYSRGWDYYYYGMDVWGQGTMVTVSS VL: DIQMTQSPSSLSASVGDRVTITCRASQGIRNDLGWYQQKPGKAPKRLIYAASTLQSGVPSRFSGSGSGTEFTLTISSLQPEDFATYYCLQHNSYPWTFGQGTKVEIKR
binds | anti-FLT3 antibody 17497 (antibody, human IgG1, kappa, L234A L235A, V domains shown) VH: QVQLQESGPGLVKPSGTLSLTCAVSGGSISSTNWWSWVRQPPGKGLEWIGEISHRGSTNYNPSLKSRVTISVDKSKNQFSLKLSSVTAADTAVYYCARDPEMTLYYYYGMDVWGQGTTVTVSS VL: DIQMTQSPSSLSASVGDRVTITCRASRGIRNDLGWYQQKPGKAPKRLIYAASSLQSGVPSRFSGSGSGTEFTLTISSLQPEDFATYYCLQHNSYPLTFGGGTKVEIKR
